The supplement of paper PMC12024529
Counter-ions that a name gives are not always drawn. The list shows a part of the results. Part of the spread comes from offsets between plates or batches.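 HEK293 lines stably express B-domain-deleted factor VIII fused to Gaussia luciferase, wild type or a misfolding-prone missense mutant. Scores equal triplicate-well mean luminescence minus DMSO mean, divided by DMSO standard deviation; scores of 2 or higher are hits. Low scores may indicate reduced secretion or worse cell viability.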

How the values were obtained:
HEK293 WT BDD-FVIII-Gluc = experiment: secreted FVIII-Gluc luciferase Z-score vs DMSO control; higher = more FVIII-Gluc secretion; settings: 5 µM; 24 h
[1] = test system: HEK293 p.N1941S BDD-FVIII-Gluc; experiment: as above; settings: 5 µM; 24 h

Row | SMILES | secreted FVIII-Gluc luciferase Z-score (HEK293 WT BDD-FVIII-Gluc) | secreted FVIII-Gluc luciferase Z-score [1]
1 | N.N.[Cl][Pt][Cl] [Cisplatin] | inactive: 0.994 | active: 3.45
2 | CN1[C@@H]2CC[C@H]1C[C@@H](OC(=O)[C@H](CO)c1ccccc1)C2 [Hyoscyamine (Daturine)] | inactive: -0.446 | inactive: 0.451
3 | CCC1(c2cccc(O)c2)CCCCN(C)C1 (stereo not drawn) [Meptazinol HCl] | inactive: 0.22 | inactive: -0.427
4 | C[C@]12CC[C@H]3[C@@H](CC[C@@]45O[C@@H]4C(O)=C(C#N)C[C@]35C)[C@@H]1CC[C@@H]2O [Trilostane] | inactive: -4.12 | inactive: -0.264
5 | Cc1cccc(Cc2c[nH]cn2)c1C [Detomidine HCl] | inactive: -0.622 | inactive: -0.377
6 | C[C@@H]1O[C@@H](O[C@H]2C[C@@H](O)[C@]3(CO)[C@H]4[C@H](O)C[C@]5(C)[C@@H](C6=CC(=O)OC6)CC[C@]5(O)[C@@H]4CC[C@]3(O)C2)[C@H](O)[C@H](O)[C@H]1O [Ouabain] | inactive: -3.89 | inactive: -5.69
7 | C[N+](C)(C)CCCCCCCCCC[N+](C)(C)C [Decamethonium bromide] | inactive: -1.38 | inactive: -0.0544
8 | Cn1c(CCCC(=O)O)nc2cc(N(CCCl)CCCl)ccc21 [Bendamustine HCL] | inactive: -0.0702 | inactive: -4.72
9 | COc1ccc(C(CN(C)C)C2(O)CCCCC2)cc1 (stereo not drawn) [Venlafaxine] | inactive: -0.645 | inactive: -0.093
10 | CN1C(=O)CCS(=O)(=O)C1c1ccc(Cl)cc1 (stereo not drawn) [Chlormezanone (Trancopal)] | inactive: -0.916 | inactive: 0.116
11 | CC(=O)Nc1cc([As](=O)(O)O)ccc1O [Acetarsone] | inactive: -1.19 | inactive: -0.537
12 | O=C1CC[C@@]2(O)[C@H]3Cc4ccc(O)c5c4[C@@]2(CCN3CC2CC2)[C@H]1O5 [Naltrexone HCl] | inactive: -0.151 | inactive: 0.711
13 | CN(C)[C@@H]1C(=O)C(C(N)=O)=C(O)[C@@]2(O)C(=O)C3=C(O)c4c(O)cccc4[C@@](C)(O)[C@H]3[C@H](O)[C@@H]12 [Oxytetracycline (Terramycin)] | inactive: 0.93 | inactive: -3.1
14 | CN1[C@@H]2C[C@@H](OC(=O)[C@H](CO)c3ccccc3)C[C@H]1[C@@H]1O[C@@H]12 [Scopolamine hydrobromide] | inactive: -1.19 | inactive: -1.66
15 | O=c1[nH]c2ccccc2n1CCCN1CCC(n2c(=O)[nH]c3cc(Cl)ccc32)CC1 [Domperidone (Motilium)] | inactive: -2.79 | inactive: -2.54
16 | C#C[C@]1(O)C=C[C@H]2[C@@H]3CCC4=CC(=O)CC[C@@H]4[C@H]3CC[C@@]21CC [Gestodene] | inactive: -0.324 | inactive: -1.85
17 | CC[C@@H](C(N)=O)N1CCCC1=O [Levetiracetam] | inactive: -3.49 | inactive: -0.505
18 | C[N+]1(C)[C@@H]2C[C@@H](OC(=O)[C@H](CO)c3ccccc3)C[C@H]1[C@@H]1O[C@@H]12 [Methscopolamine (Pamine)] | inactive: -1.52 | inactive: -0.551
19 | CC(=O)OC12COC1CC(O)C1(C)C(=O)C(O)C3=C(C)C(O)CC(O)(C(OC(=O)c4ccccc4)C21)C3(C)C (stereo not drawn) [10-Deacetylbaccatin-III] | inactive: -0.751 | inactive: -3.36
20 | COc1cc2c(cc1OC)[C@@]13CCN4CC5=CCO[C@H]6CC(=O)N2[C@H]1[C@H]6[C@H]5C[C@H]43 [Brucine] | inactive: 0.382 | inactive: 0.761
21 | CCC1=C[C@H]2CN3CCc4c([nH]c5ccccc45)[C@](C(=O)OC)(C2)[C@H]13 [Catharanthine] | inactive: -0.934 | inactive: -0.119
22 | O=c1[nH]c2ccccc2n1C1CCN(CCCC(c2ccc(F)cc2)c2ccc(F)cc2)CC1 [Pimozide] | inactive: -4 | inactive: -0.213
23 | O=P1(NCCCl)OCCCN1CCCl (stereo not drawn) [Ifosfamide] | inactive: -6.24 | inactive: -0.314
24 | O=C(O[C@H]1C[N+]2(CCCOc3ccccc3)CCC1CC2)C(O)(c1cccs1)c1cccs1 [Aclidinium Bromide] | inactive: -0.976 | inactive: 0.29

Copied from the list:
Value of `C[C@@H]1O[C@@H](O[C@H]2C[C@@H](O)[C@]3(CO)[C@H]4[C@H](O)C[C@]5(C)[C@@H](C6=CC(=O)OC6)CC[C@]5(O)[C@@H]4CC[C@]3(O)C2)[C@H](O)[C@H](O)[C@H]1O` [Ouabain] under secreted FVIII-Gluc luciferase Z-score [1]: inactive: -5.69
Value of `N.N.[Cl][Pt][Cl]` [Cisplatin] under secreted FVIII-Gluc luciferase Z-score (HEK293 WT BDD-FVIII-Gluc): inactive: 0.994
